Reference: PubChem BioAssay AID540256 (National Center for Advancing Translational Sciences (NCATS), 2011)
Out of some 300,000 compounds screened, about 3,700 (1.2%) were called active. The shares of active, inactive and inconclusive entries below differ from those in the screen. Calls follow the shape of the full dose curve; tested in HEK293 cells. Where the call is inconclusive, the potency comes from a doubtful curve fit.

Test: qHTS for Inhibitors of binding or entry into cells for Lassa Virus; also: nearly all actives have a fitted effect of over 50% in size
Settings: Lassa virus pseudotype entry inhibition, cell reporter; series mostly up to 37.9 µM
Potency is read from the fitted curve at half-maximal effect.

Row | Structure (SMILES) | Potency
1 | CCOc1ccccc1NC(=O)N1CCC(n2nnc3cc(C)ccc32)CC1 | inactive
2 | O=C(CCCOc1ccc(Br)cc1)Nc1ccc(S(=O)(=O)N2CCOCC2)cc1 | inconclusive: 20 µM [inhibitor, single point]
3 | CCOC(=O)c1ccc(CN(Cc2ccccc2C)S(=O)(=O)c2ccc(F)c(C)c2)cc1 | inactive
4 | COc1ccc(OCC(=O)NNc2c3ccccc3nc3ccccc23)cc1 | inconclusive: 35.5 µM [inhibitor, single point]
5 | COc1ccc(C)cc1NC(=O)C(Cc1ccccc1)NS(=O)(=O)c1cccs1 (stereo unspecified) | inactive
6 | Cc1cc(C)cc(-n2c(SCC(N)=O)nc3c([nH]c4ccccc43)c2=O)c1 | inconclusive: 35.5 µM [inhibitor, single point]
7 | O=C(Nc1ccccc1C(F)(F)F)N1CCC(CN2CCc3ccccc3C2)CC1 | inactive
8 | COc1cc(/C=C(\NC(C)=O)C(=O)Nc2ccc(NC(C)=O)cc2)ccc1OC(C)=O | inconclusive: 1.26 µM [inhibitor, single point]
9 | OC(CNCC(c1ccc(Cl)cc1Cl)c1c[nH]c2ccccc12)c1ccccc1 (stereo unspecified) | inconclusive: 35.5 µM [inhibitor, single point]
10 | COc1cc(-c2nnc(NC(=O)CS(=O)(=O)c3ccc(C)cc3)o2)cc(OC)c1OC | inactive
11 | Cc1cccc2c(C(=O)N3CCN(C(=O)c4ccco4)CC3)cc(-c3cccc(Br)c3)nc12 | inconclusive: 22.4 µM [inhibitor, single point]
12 | OCc1cnc[nH]1 | inactive
13 | Cn1c(/C(C#N)=C/c2ccc(-c3ccc(S(N)(=O)=O)cc3)o2)nc2ccccc21 | inconclusive: 16.4 µM [inhibitor, partial curve, poor fit]
14 | COc1cc(/C=N/NC(=O)c2cc(-c3ccccc3OC(C)C)nc3ccccc23)ccc1O | active: 5.8 µM
15 | CCCCCc1nc2sc3c(c2c(=O)n1NC(=O)c1ccc([N+](=O)[O-])cc1)CC(C)(C)OC3 | inconclusive: 17.8 µM [inhibitor, partial curve, poor fit]
16 | CC(/C=N/NC(=O)c1cc(C(C)C)[nH]n1)=C\c1ccccc1 | inconclusive: 20.6 µM [inhibitor, partial curve, poor fit]
17 | CN(Cc1ccccc1)c1ncnc2[nH]ncc12 | inconclusive: 12.6 µM [inhibitor, single point]
18 | CC(C)CN(C(=O)c1nn(C)c(=O)c2ccccc12)c1nc2ccccc2s1 | inactive
19 | CCN(C(=O)COC(=O)/C=C/c1cnc2ccccc2n1)C1CCS(=O)(=O)C1 (stereo unspecified) | inconclusive: 10 µM [inhibitor, single point]
20 | O=C(CN(c1cccc(C(F)(F)F)c1)S(=O)(=O)c1ccc(Cl)c([N+](=O)[O-])c1)NCc1ccccc1Cl | inconclusive: 14.1 µM [inhibitor, single point]
21 | CN(C)c1nc2c(N)ncnc2n1C1OC(CO)C(O)C1O (stereo unspecified) | inactive
22 | Cc1cc(NC(=O)CSc2c[nH]c3ccccc23)no1 | inconclusive: 35.5 µM [inhibitor, partial curve, poor fit]
23 | Cc1ccc(NC(=O)c2ccoc2)cc1-c1ccc(C(=O)NCC2CC2)cc1 | active: 3.15 µM
24 | CCN(CC)CCCN(C(=O)c1ccco1)c1nc(-c2ccc(C)cc2)cs1 | inconclusive: 8.91 µM [inhibitor, partial curve, poor fit]

Individual results from the results shown:
Potency with CN(Cc1ccccc1)c1ncnc2[nH]ncc12 reads inconclusive: 12.6 µM [inhibitor, single point]
Potency with CCOC(=O)c1ccc(CN(Cc2ccccc2C)S(=O)(=O)c2ccc(F)c(C)c2)cc1 reads inactive
Potency with CCCCCc1nc2sc3c(c2c(=O)n1NC(=O)c1ccc([N+](=O)[O-])cc1)CC(C)(C)OC3 reads inconclusive: 17.8 µM [inhibitor, partial curve, poor fit]

The list continues:

Row | Structure (SMILES) | Potency
25 | CCC1=NN(C(=O)C(=O)Nc2ccc(Br)cc2)C(O)(C(F)(F)F)C1 (stereo unspecified) | inconclusive: 35.5 µM [inhibitor, single point]
26 | CN(Cc1ccccc1)S(=O)(=O)c1ccc(Cl)c(C(=O)O)c1 | inactive
27 | COc1ccc2nc(C)cc(Nc3ccc(Cl)c(Cl)c3)c2c1 | inconclusive: 35.5 µM [inhibitor, single point]
28 | COc1ccc(OC)c(/C=N/NC(=O)CC(=O)NC2CCCCC2)c1 | inconclusive: 0.891 µM [inhibitor, full curve, poor fit]
29 | Cc1ccc(-n2c(=O)c3c(cnn3C)n(CC(=O)Nc3ccccc3C)c2=O)cc1 | inactive
30 | CC1(C)CC(=O)C(C(C#Cc2ccccc2)C2=C(O)CC(C)(C)CC2=O)=C(O)C1 | inactive
31 | CC(=O)Nc1cccc(C(=O)OCC(=O)c2ccc3c(c2)OCO3)c1 | inconclusive: 8.91 µM [inhibitor, partial curve, poor fit]
32 | Cc1ccc(S(=O)(=O)N2CCN(C(=O)C3CC3C)CC2)c(C)c1 (stereo unspecified) | inactive
33 | Cc1cc(C)cc(N(CCC#N)C(=O)CSC2=Nc3ccccc3C3CC=NN23)c1 (stereo unspecified) | inconclusive: 17.8 µM [inhibitor, partial curve, poor fit]
34 | CC1CC1C(=O)OCC(=O)NNC(=O)COc1ccc(Br)cc1 (stereo unspecified) | inconclusive: 5.62 µM [activator, single point]
35 | CC(=O)Nc1c(Nc2ccccc2)c2ccccc2oc1=O | inactive
36 | C=CCn1c(=O)c(C(=O)NCCc2ccccc2)c(O)c2ccccc21 | inactive
37 | O=C(Nc1ccccc1F)Nc1cc(S(=O)(=O)N2CCOCC2)ccc1N1CCCC1 | inconclusive: 2.24 µM [activator, partial curve]
38 | O=C1CCC(=O)N1CCc1c[nH]c2ccccc12 | inactive
39 | CCCCc1noc(-c2c(-c3ccccc3Cl)noc2C)n1 | inconclusive: 1 µM [inhibitor, single point]
40 | CC(=O)N(c1ccccc1C)C1CCCC1 | inactive
41 | COc1cccc(-c2noc(COc3ccccc3Cl)n2)c1 | inconclusive: 0.355 µM [activator, full curve, poor fit]
42 | Cc1ccc(Nc2nnc(SCC(=O)Nc3ccc(S(=O)(=O)N4CCOCC4)cc3)s2)cc1 | inconclusive: 15.8 µM [activator, partial curve, poor fit]
43 | O=C(CCNS(=O)(=O)c1ccc(Br)s1)N1CCN(c2ccccc2)CC1 | inconclusive: 1.58 µM [inhibitor, full curve]
44 | COCC(=O)N(Cc1cc2cc(C)ccc2[nH]c1=O)c1cccc(C)c1C | inactive
45 | CCn1c(=O)c2cc(C(=O)NCCCN3CCC(C)CC3)sc2c2ccccc21 | inconclusive: 11.2 µM [inhibitor, single point]
46 | CN(C)c1ccc(/C=C(/C(=O)c2ccc(Cl)cc2Cl)n2cncn2)cc1 | inconclusive: 15.8 µM [inhibitor, single point]
47 | COc1ccc(-c2onc(C)c2C)cc1S(=O)(=O)NCC1CCN(Cc2cc(C)ccc2C)CC1 | inconclusive: 20 µM [inhibitor, single point]
48 | Cn1c(=O)c2c(nc(SCC(=O)N3CCOCC3)n2C)n(C)c1=O | inconclusive: 12.6 µM [activator, partial curve, poor fit]

Row | Structure (SMILES) | Potency
49 | COc1cc2c(cc1OC)C(c1ccc(-c3ccc(Cl)cc3Cl)o1)=NCC2 | active: 14.1 µM
50 | CC1CCN(S(=O)(=O)c2ccc3c(ccn3CCC(=O)NCc3ccc(N(C)C)cc3)c2)CC1 | inconclusive: 25.1 µM [inhibitor, single point]
51 | CCNC(=S)NNC(=O)c1cc(-c2ccc(OCC)cc2)nc2ccccc12 | active: 1.16 µM
52 | COc1cccc2cc(C(=O)NCCc3c(C)[nH]c4ccc(F)cc34)c(=O)oc12 | inactive
53 | CC(=O)c1ccc(NC(=O)COC(=O)CCC2CCCC2)cc1 | inactive
54 | c1ccc(-c2nc3nc4ccccc4nc3n2Cc2ccco2)cc1 | inconclusive: 4.47 µM [activator, single point]
55 | Cc1ccsc1/C=C(\C#N)C(=O)NCc1ccco1 | inactive
56 | COc1ccc(C2=NOC(C(=O)Nc3ccc4c(c3)OCO4)C2)cc1OC (stereo unspecified) | inactive
57 | COc1cccc(C(=O)Nc2ccc3c(c2)C(=O)N(CCC(=O)O)C3=O)c1 | inactive
58 | COc1cccc(CNc2ccc(Br)cn2)c1O | inconclusive: 25.9 µM [inhibitor, single point]
59 | O=C(c1ccc(F)cc1F)N1CCN(c2ncccn2)CC1 | inactive
60 | COc1ccc(-c2csc(-c3ccccc3)n2)c(OC)c1 | inconclusive: 1.3 µM [activator, partial curve]
61 | O=C(Nc1ccc(Cl)c(C(F)(F)F)c1)NC1CC2CCCC(C1)N2C1CC1 (stereo unspecified) | inconclusive: 31.6 µM [inhibitor, single point]
62 | CCc1ccc(NC(=O)CC2C(=O)N(c3cccc(C)c3)C(=O)N2Cc2ccco2)cc1 (stereo unspecified) | inactive
63 | COc1ccc(-c2onc(C)c2-c2cnn(-c3ccccc3)c2)c(O)c1 | inconclusive: 35.5 µM [inhibitor, single point]
64 | CCC(C)n1c(-c2cccs2)nc2nc3ccccc3nc21 (stereo unspecified) | inconclusive: 1.12 µM [inhibitor, partial curve, poor fit]
65 | Cc1cc(N2CCN(c3nc(-c4ccccc4)cs3)CC2)c2ccccc2n1 | inconclusive: 7.08 µM [inhibitor, partial curve]
66 | CC(=O)N1CCCC1c1nc2ccccc2n1Cc1ccccc1C (stereo unspecified) | inconclusive: 17.8 µM [inhibitor, partial curve, poor fit]
67 | Cc1csc(-c2cccnc2)n1 | inconclusive: 10 µM [activator, single point]
68 | Cc1cc(/C=C2/NC(=O)N(c3ccccc3)C2=O)c(C)n1C(C)C | inconclusive: 2.24 µM [activator, partial curve, poor fit]
69 | C=CCNc1oc(-c2cccc3ccccc23)nc1C#N | inactive
70 | NS(=O)(=O)c1ccc(NC(=O)CSC2=NC(=O)C(c3ccccc3)C(=O)N2)cc1 (stereo unspecified) | inconclusive: 0.82 µM [inhibitor, single point]
71 | COc1cc(CNCc2cccnc2)ccc1OCC(=O)NC1CCCCC1 | inconclusive: 11.2 µM [activator, partial curve, poor fit]
